Test results from PubChem BioAssay AID248 (DTP/NCI, 2004).
The list is a part of this screen's results and no random one: it covers a few groups of compounds. Not every dose and run of a compound is shown. T/C gives the treated animals as a percentage of the vehicle group. Where survival is the endpoint, this PubChem deposit counts one and a half times the control or more as active, and values a quarter to a half above the control carry no call in these data; other NCI protocols may use other cut-offs. Some entries show no survivor count and are marked so; the dose need not have been tolerated. Schedules are NCI's codes, read here as Q, the interval in days (D) or hours (H), X, the number of doses. Some entries hold several experiments; the results are listed from low to high. Some schedules carry Z or #; the key to these is not given.

Test system: L1210 leukemia ip in BDF1 mice, survival T/C
Assay: NCI In Vivo Anticancer Drug Screen. Data for tumor model L1210 Leukemia (intraperitoneal) in B6D2F1 (BDF1) mice
Conditions: T/C endpoint: mean survival time, higher T/C = longer survival

Oc1ccc(Br)cc1CN(CCCl)CCCl
T/C (dose: 5.0 mg/kg/injection, schedule: Q01DX001 (ip), vehicle: saline): 93 % of control [survivor count not shown]
T/C (dose: 5.7 mg/kg/injection, schedule: Q01DX015 (ip), vehicle: saline): 113 % of control [survivor count not shown]
T/C (dose: 10.0 mg/kg/injection, schedule: Q01DX001 (ip), vehicle: saline): 113 % of control [survivor count not shown]
T/C (dose: 10.0 mg/kg/injection, schedule: Q01DX015 (ip), vehicle: saline): 120 % of control [survivor count not shown]
T/C (dose: 16.0 mg/kg/injection, schedule: Q01DX015 (ip), vehicle: saline): 124 % of control [survivor count not shown]
T/C (dose: 20.0 mg/kg/injection, schedule: Q01DX001 (ip), vehicle: saline): 116 % of control [survivor count not shown]
T/C (dose: 27.0 mg/kg/injection, schedule: Q01DX015 (ip), vehicle: saline): 95 % of control [survivor count not shown]
T/C (dose: 35.0 mg/kg/injection, schedule: Q01DX001 (ip), vehicle: saline): 106 [survivor count not shown] and 122 % of control [survivor count not shown]
T/C (dose: 40.0 mg/kg/injection, schedule: Q01DX001 (ip), vehicle: saline): 127 % of control [survivor count not shown]
T/C (dose: 53.0 mg/kg/injection, schedule: Q01DX001 (ip), vehicle: saline): 117 [survivor count not shown] and 130 % of control [survivor count not shown]
T/C (dose: 80.0 mg/kg/injection, schedule: Q01DX001 (ip), vehicle: saline): 117 [survivor count not shown], 121 [survivor count not shown], 133 % of control [survivor count not shown]
T/C (dose: 100.0 mg/kg/injection, schedule: Q01DX001 (ip), vehicle: saline): 110 % of control [survivor count not shown]
T/C (dose: 120.0 mg/kg/injection, schedule: Q01DX001 (ip), vehicle: saline): 127 % of control [survivor count not shown]

O=P(NC1CCCCC1)(N(CCCl)CCCl)N1CC1 (centres undefined)
T/C (dose: 2.0 mg/kg/injection, schedule: Q01DX Z (ip), vehicle: saline): 104 % of control [survivor count not shown]
T/C (dose: 4.0 mg/kg/injection, schedule: Q01DX Z (ip), vehicle: saline): 97 % of control [survivor count not shown]
T/C (dose: 8.0 mg/kg/injection, schedule: Q01DX Z (ip), vehicle: saline): 104 % of control [survivor count not shown]
T/C (dose: 16.0 mg/kg/injection, schedule: Q01DX Z (ip), vehicle: saline): 129 [survivor count not shown] and 162 % of control [survivor count not shown]
T/C (dose: 32.0 mg/kg/injection, schedule: Q01DX Z (ip), vehicle: saline): 89 % of control [survivor count not shown]

ClCCN1CCCCC1CCl (centres undefined)
T/C (dose: 0.31 mg/kg/injection, schedule: Q01DX009 (ip), vehicle: saline): 118 % of control [survivor count not shown]
T/C (dose: 0.63 mg/kg/injection, schedule: Q01DX009 (ip), vehicle: saline): 143 % of control [survivor count not shown]
T/C (dose: 0.63 mg/kg/injection, schedule: Q04DX003 (ip), vehicle: saline): 120 % of control [survivor count not shown]
T/C (dose: 1.25 mg/kg/injection, schedule: Q04DX003 (ip), vehicle: saline): 112 % of control [survivor count not shown]

O=[N+]([O-])c1ccc(/C=C/N(CCCl)CCCl)cc1
T/C (dose: 2.5 mg/kg/injection, schedule: Q01DX Z (ip), vehicle: saline): 100 % of control [survivor count not shown]
T/C (dose: 5.0 mg/kg/injection, schedule: Q01DX Z (ip), vehicle: saline): 102 % of control [survivor count not shown]
T/C (dose: 10.0 mg/kg/injection, schedule: Q01DX Z (ip), vehicle: other): 103 % of control [survivor count not shown]
T/C (dose: 10.0 mg/kg/injection, schedule: Q01DX Z (ip), vehicle: saline): 105 % of control [survivor count not shown]
T/C (dose: 20.0 mg/kg/injection, schedule: Q01DX Z (ip), vehicle: other): 98 % of control [survivor count not shown]
T/C (dose: 40.0 mg/kg/injection, schedule: Q01DX Z (ip), vehicle: other): 97 % of control [survivor count not shown]
T/C (dose: 80.0 mg/kg/injection, schedule: Q01DX Z (ip), vehicle: other): 97 % of control [survivor count not shown]
